PubChem BioAssay AID1259254 | NCATS | 2017
Aim: 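Genome-wide screen for genes that prevent DNA re-replication in cancer cells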 (primary screen). Cells: human HCT116 colorectal cancer cells. Reagent: single siRNA against human genes. Duration: 3 days. Detection: 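Imaged Hoechst DNA stain sorts each cell into a cycle phase by DNA amount; per plate, G2 fraction set to 0% for non-targeting and 100% for GMNN siRNA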. Scale: G2 robust z-score: higher = more G2 cells, more excess DNA replication. Hit rule: 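An siRNA counts as active if its G2 robust z-score lies at least 5 MADs above the screen median; here such calls match roughly 38% of GMNN control or more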.
Here is one part, drawn at random, of about 59,000 reagents tested. About 1,550 of all reagents (2.6%) were called active. 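G2 share is only a proxy for re-replication; each gene was hit by three separate siRNAs, and active genes were retested.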 Reagents against one gene are numbered here. Further read-outs or replicates are left out here. The record does not give: the amount of reagent.

G2 robust z-score, by gene symbol and reagent
SAMD13 (sterile alpha motif domain containing 13): #1 -0.0355 inactive; #2 -1.25 inactive; #3 1.91 inactive
H2BC4 (H2B clustered histone 4): #1 -1.12 inactive; #2 0.747 inactive; #3 0.614 inactive
EPCIP (exosomal polycystin 1 interacting protein): #1 -0.594 inactive; #2 -0.789 inactive; #3 2.65 inactive
SPSB3 (splA/ryanodine receptor domain and SOCS box containing 3): #1 3.46 inactive; #2 0.778 inactive; #3 -0.476 inactive
SMAD7 (SMAD family member 7): #1 -0.183 inactive; #2 0.471 inactive; #3 2.11 inactive
ZNF613 (zinc finger protein 613): #1 -0.408 inactive; #2 -0.0668 inactive; #3 -0.355 inactive
PCGF5 (polycomb group ring finger 5): #1 -0.07 inactive; #2 0.389 inactive; #3 -1.08 inactive
DIO3 (iodothyronine deiodinase 3): #1 -0.661 inactive; #2 0.651 inactive; #3 -0.781 inactive
TBC1D22A (TBC1 domain family member 22A): #1 -1.05 inactive; #2 0.348 inactive; #3 -0.634 inactive
FHL5 (four and a half LIM domains 5): #1 -0.477 inactive; #2 1.01 inactive; #3 -0.122 inactive
APCDD1 (APC down-regulated 1): #1 -0.162 inactive; #2 0.398 inactive; #3 -0.423 inactive
IRF4 (interferon regulatory factor 4): #1 2.56 inactive; #2 -0.933 inactive; #3 -0.0162 inactive
ADAMTSL4 (ADAMTS like 4): #1 3.92 inactive; #2 0.126 inactive; #3 0.247 inactive
PLEKHO2 (pleckstrin homology domain containing O2): #1 -0.216 inactive; #2 -0.142 inactive; #3 -0.51 inactive
LILRA5 (leukocyte immunoglobulin like receptor A5): #1 -0.397 inactive; #2 0.718 inactive; #3 0.344 inactive
ZNF281 (zinc finger protein 281): #1 -1.19 inactive; #2 1.29 inactive; #3 5.29 active
